According to article PMC6016017:
No constants are given. Whether binding was seen depends on the method and setting. For some of these results: In cells and extracts the contact can be indirect. Some results given as binding are weak or reduced against the parent protein; the word gives no strength. Where a sequence is shown, tags or fusion partners need not be part of it.

T1: Arabidopsis VPS38 (VACUOLAR PROTEIN SORTING-38) fused to the GAL4 DNA-binding domain (Arabidopsis thaliana) (UniProt Q8S9J3)
T1 sequence: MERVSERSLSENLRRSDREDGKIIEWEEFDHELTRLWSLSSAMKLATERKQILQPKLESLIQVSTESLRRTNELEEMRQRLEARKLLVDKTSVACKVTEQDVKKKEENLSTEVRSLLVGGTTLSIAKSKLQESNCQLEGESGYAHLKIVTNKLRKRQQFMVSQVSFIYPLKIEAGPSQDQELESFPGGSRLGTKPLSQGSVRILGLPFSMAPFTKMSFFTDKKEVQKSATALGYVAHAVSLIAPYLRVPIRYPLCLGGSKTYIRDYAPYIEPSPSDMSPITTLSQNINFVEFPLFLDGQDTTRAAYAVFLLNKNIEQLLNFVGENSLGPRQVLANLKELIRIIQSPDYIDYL

T2: Arabidopsis ATG6 (VPS30/Beclin1), split-YFP fusion (nYFP or cYFP) for BiFC (Arabidopsis thaliana) (UniProt Q9M367)
T2 sequence: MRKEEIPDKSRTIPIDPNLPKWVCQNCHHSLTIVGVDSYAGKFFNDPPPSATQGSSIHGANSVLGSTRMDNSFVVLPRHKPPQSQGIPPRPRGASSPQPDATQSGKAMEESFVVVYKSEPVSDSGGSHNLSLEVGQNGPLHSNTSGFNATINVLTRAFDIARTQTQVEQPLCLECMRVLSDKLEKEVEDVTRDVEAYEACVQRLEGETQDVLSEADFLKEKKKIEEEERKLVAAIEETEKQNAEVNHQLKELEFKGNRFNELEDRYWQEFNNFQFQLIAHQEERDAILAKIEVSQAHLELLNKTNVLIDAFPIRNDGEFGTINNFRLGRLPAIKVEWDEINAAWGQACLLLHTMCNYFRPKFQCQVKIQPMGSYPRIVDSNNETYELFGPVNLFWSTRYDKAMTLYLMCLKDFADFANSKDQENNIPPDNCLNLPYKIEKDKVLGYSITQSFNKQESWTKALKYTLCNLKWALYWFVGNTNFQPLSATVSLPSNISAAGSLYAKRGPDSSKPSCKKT

T3: Arabidopsis VPS38, split-ubiquitin fusion (Cub-PLV bait or NubG prey) (Arabidopsis thaliana) (UniProt Q8S9J3)
T3 sequence: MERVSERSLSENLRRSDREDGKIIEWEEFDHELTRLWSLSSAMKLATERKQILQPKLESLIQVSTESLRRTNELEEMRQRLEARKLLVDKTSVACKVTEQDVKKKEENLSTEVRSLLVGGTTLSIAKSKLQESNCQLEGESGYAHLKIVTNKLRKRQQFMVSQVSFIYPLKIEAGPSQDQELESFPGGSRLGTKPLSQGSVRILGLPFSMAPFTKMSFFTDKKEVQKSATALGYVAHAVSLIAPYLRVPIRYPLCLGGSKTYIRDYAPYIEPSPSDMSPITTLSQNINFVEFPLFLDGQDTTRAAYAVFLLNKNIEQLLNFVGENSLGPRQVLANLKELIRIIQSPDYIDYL


Key:
[1] = target: T1, Arabidopsis VPS38 (VACUOLAR PROTEIN SORTING-38) fused to the GAL4 DNA-binding domain (Arabidopsis thaliana); test: two-hybrid; GAL4-based Y2H, HIS3 reporter; VPS38 on the DNA-binding domain, ATG6 on the activation domain; yeast MaV203, 2-day growth at 30°C on medium lacking histidine, leucine and tryptophan with 25 mM 3-amino-1,2,4-triazole
[2] = target: T2, Arabidopsis ATG6 (VPS30/Beclin1), split-YFP fusion (nYFP or cYFP) for BiFC (Arabidopsis thaliana); test: split reporter; BiFC with nYFP (1-174) and cYFP (175-239) fusions transiently co-expressed in N. benthamiana leaf epidermal cells; confocal microscopy 36 h after infiltration
[3] = target: T3, Arabidopsis VPS38, split-ubiquitin fusion (Cub-PLV bait or NubG prey) (Arabidopsis thaliana); test: two-hybrid; split-ubiquitin (Protein A/LexA/VP16) mating system; baits on Cub-PLV, preys on NubG; diploid THY.AP4 THY.AP5 yeast, growth on medium lacking histidine, leucine, tryptophan, uracil and adenine

Row | binding [2] | Binder | also measured
1 | – | Arabidopsis ATG6 (VPS30/Beclin1) fused to the GAL4 activation domain (protein, UniProt Q9M367 1-517) MRKEEIPDKSRTIPIDPNLPKWVCQNCHHSLTIVGVDSYAGKFFNDPPPSATQGSSIHGANSVLGSTRMDNSFVVLPRHKPPQSQGIPPRPRGASSPQPDATQSGKAMEESFVVVYKSEPVSDSGGSHNLSLEVGQNGPLHSNTSGFNATINVLTRAFDIARTQTQVEQPLCLECMRVLSDKLEKEVEDVTRDVEAYEACVQRLEGETQDVLSEADFLKEKKKIEEEERKLVAAIEETEKQNAEVNHQLKELEFKGNRFNELEDRYWQEFNNFQFQLIAHQEERDAILAKIEVSQAHLELLNKTNVLIDAFPIRNDGEFGTINNFRLGRLPAIKVEWDEINAAWGQACLLLHTMCNYFRPKFQCQVKIQPMGSYPRIVDSNNETYELFGPVNLFWSTRYDKAMTLYLMCLKDFADFANSKDQENNIPPDNCLNLPYKIEKDKVLGYSITQSFNKQESWTKALKYTLCNLKWALYWFVGNTNFQPLSATVSLPSNISAAGSLYAKRGPDSSKPSCKKT | binding [1]: binds
2 | binds | Arabidopsis VPS38, split-YFP fusion (nYFP or cYFP) for BiFC (protein, UniProt Q8S9J3 1-352) MERVSERSLSENLRRSDREDGKIIEWEEFDHELTRLWSLSSAMKLATERKQILQPKLESLIQVSTESLRRTNELEEMRQRLEARKLLVDKTSVACKVTEQDVKKKEENLSTEVRSLLVGGTTLSIAKSKLQESNCQLEGESGYAHLKIVTNKLRKRQQFMVSQVSFIYPLKIEAGPSQDQELESFPGGSRLGTKPLSQGSVRILGLPFSMAPFTKMSFFTDKKEVQKSATALGYVAHAVSLIAPYLRVPIRYPLCLGGSKTYIRDYAPYIEPSPSDMSPITTLSQNINFVEFPLFLDGQDTTRAAYAVFLLNKNIEQLLNFVGENSLGPRQVLANLKELIRIIQSPDYIDYL | –
3 | binds | Arabidopsis VPS15, split-YFP fusion (nYFP or cYFP) for BiFC (protein, UniProt Q9M0E5 1-1494) MGNKIARTTQVSATEYYLHDLPSSYNLVLKEVLGRGRFLKSIQCKHDEGLVVVKVYFKRGDSIDLREYERRLVKIKDVFLSLEHPHVWPFQFWQETDKAAYLVRQYFYSNLHDRLSTRPFLSLVEKKWLAFQLLLAVKQCHEKDICHGDIKCENVLLTSWNWLYLADFASFKPTYIPYDDPSDFSFFFDTRGQRLCYLAPERFYEHGGETQVAQDAPLKPSMDIFAVGCVIAELFLEGQPLFELAQLLAYRRGQHDPSQHLEKIPDPGIRKMILHMIQLEPEARLSAEDYLQNYVGVVFPNYFSPFLHTLYCCWNPLPSDMRVATCQGIFQEILKKMMENKSGDEIGVDSPVTSNPMNASTVQETFANHKLNSSKDLIRNTVNSKDEIFYSISDALKKNRHPFLKKITMDDLGTLMSLYDSRSDTYGTPFLPVEGNMRCEGMVLIASMLCSCIRNIKLPHLRREAILLLRSCSLYIDDDDRLQRVLPYVVALLSDPTAIVRCAAMETLCDILPLVRDFPPSDAKIFPEYIFPMLSMLPEDTEESVRICYASNIAKLALTAYGFLIHSFQLSDVGVLNELNSQQISTTPASETPSHLQKANGNAQLQQLRKTIAEVVQELVMGPKQTPNVRRALLQDIGELCFFFGQRQSNDFLLPILPAFLNDRDEQLRSVFFEKIVYVCFFVGQRSVEEYLLPYIDQALSDQTEAVIVNALECLSTLCKSSFLRKRALLQMIECVYPLLCYPSQWVRRAVVTFIAASSECLGAVDSYAFIAPVIRSYLSRLPASIASEEGLLSCLKPPVTREVVYRIFEKTRNPEFMAKQRKMWYSSSPQSKDWESVDLFDKDAGELNSVECRAEQKQSVEGKKQIKSASKQPEVQGKYAEKDAKLRIPRNPRPNASNTVELRDPVYPEKLQFSGFMAPYVSGANSFIEPENIPLYSFSMDKRAATNPPVASESSLQMNSLGMGSLSVPWMDSMSKSFNLASSVPVPKLISGSFHVGTNPKQFYRVVHEPESRENDQISSAISKFQDLGVSSSSKSASVTSEDASSPADLVGEPSLSRTSVPDSGWKPRGVLVAHLQEHRSAVNDIATSSDHSFFVSASDDSTVKVWDSRKLEKDISFRSRLTYHLEGSRGMCTTMLRNSTQVVVGASDGVIHMFSIDHISRGLGNVVEKYSGIVDIKKKDVKEGALVSLLNYTADSLSGPMVMYSTQNCGIHLWDTRSDLDAWTLKANPEEGYVSSLVTSPCGNWFVSGSSRGVLTLWDLRFRVPVNSWQYPIICPIEKMCLCFLPPSVSVSTTMKPLIYVAAGCNEVSLWNAEGGSCHQVLRVANYENETDVSEFQWKLPSNKVNPKPNHRQNMSSKYRIEELNEPPPRLPGIRSLLPLPGGDLLTGGTDLKIRRWDYSSPERSYCICGPSLKGVGNDDFYELKTNTGVQFVQETKRRPLATKLTAKAVLAAAATDTAGCHRDSVQSLASVKLNQRLLISSSRDGAIKVWK | –
4 | – | Arabidopsis VPS15, split-ubiquitin fusion (Cub-PLV bait or NubG prey) (protein, UniProt Q9M0E5 1-1494) MGNKIARTTQVSATEYYLHDLPSSYNLVLKEVLGRGRFLKSIQCKHDEGLVVVKVYFKRGDSIDLREYERRLVKIKDVFLSLEHPHVWPFQFWQETDKAAYLVRQYFYSNLHDRLSTRPFLSLVEKKWLAFQLLLAVKQCHEKDICHGDIKCENVLLTSWNWLYLADFASFKPTYIPYDDPSDFSFFFDTRGQRLCYLAPERFYEHGGETQVAQDAPLKPSMDIFAVGCVIAELFLEGQPLFELAQLLAYRRGQHDPSQHLEKIPDPGIRKMILHMIQLEPEARLSAEDYLQNYVGVVFPNYFSPFLHTLYCCWNPLPSDMRVATCQGIFQEILKKMMENKSGDEIGVDSPVTSNPMNASTVQETFANHKLNSSKDLIRNTVNSKDEIFYSISDALKKNRHPFLKKITMDDLGTLMSLYDSRSDTYGTPFLPVEGNMRCEGMVLIASMLCSCIRNIKLPHLRREAILLLRSCSLYIDDDDRLQRVLPYVVALLSDPTAIVRCAAMETLCDILPLVRDFPPSDAKIFPEYIFPMLSMLPEDTEESVRICYASNIAKLALTAYGFLIHSFQLSDVGVLNELNSQQISTTPASETPSHLQKANGNAQLQQLRKTIAEVVQELVMGPKQTPNVRRALLQDIGELCFFFGQRQSNDFLLPILPAFLNDRDEQLRSVFFEKIVYVCFFVGQRSVEEYLLPYIDQALSDQTEAVIVNALECLSTLCKSSFLRKRALLQMIECVYPLLCYPSQWVRRAVVTFIAASSECLGAVDSYAFIAPVIRSYLSRLPASIASEEGLLSCLKPPVTREVVYRIFEKTRNPEFMAKQRKMWYSSSPQSKDWESVDLFDKDAGELNSVECRAEQKQSVEGKKQIKSASKQPEVQGKYAEKDAKLRIPRNPRPNASNTVELRDPVYPEKLQFSGFMAPYVSGANSFIEPENIPLYSFSMDKRAATNPPVASESSLQMNSLGMGSLSVPWMDSMSKSFNLASSVPVPKLISGSFHVGTNPKQFYRVVHEPESRENDQISSAISKFQDLGVSSSSKSASVTSEDASSPADLVGEPSLSRTSVPDSGWKPRGVLVAHLQEHRSAVNDIATSSDHSFFVSASDDSTVKVWDSRKLEKDISFRSRLTYHLEGSRGMCTTMLRNSTQVVVGASDGVIHMFSIDHISRGLGNVVEKYSGIVDIKKKDVKEGALVSLLNYTADSLSGPMVMYSTQNCGIHLWDTRSDLDAWTLKANPEEGYVSSLVTSPCGNWFVSGSSRGVLTLWDLRFRVPVNSWQYPIICPIEKMCLCFLPPSVSVSTTMKPLIYVAAGCNEVSLWNAEGGSCHQVLRVANYENETDVSEFQWKLPSNKVNPKPNHRQNMSSKYRIEELNEPPPRLPGIRSLLPLPGGDLLTGGTDLKIRRWDYSSPERSYCICGPSLKGVGNDDFYELKTNTGVQFVQETKRRPLATKLTAKAVLAAAATDTAGCHRDSVQSLASVKLNQRLLISSSRDGAIKVWK | binding [3]: binds
